Data published in PMC8321694.
Where a chain is given by its changes, count along the chain named. These are yes or no findings as the source states them, for the method shown. Binding calls can cover weak binding; strength is not graded here.

Columns and labels:
[1] = molecular target: T1, LexA-Pol31-W417A (budding yeast) (UniProt P46957); experiment: two-hybrid; LexA bait (pGAL-LexA) and B42 prey (pJG4-7), lacZ reporter pSH18-34; 2% galactose for 6 h; quantitative liquid β-galactosidase assay of cell extracts; wild-type strain GA-1981 (endogenous Pol32 present)
T1 sequence: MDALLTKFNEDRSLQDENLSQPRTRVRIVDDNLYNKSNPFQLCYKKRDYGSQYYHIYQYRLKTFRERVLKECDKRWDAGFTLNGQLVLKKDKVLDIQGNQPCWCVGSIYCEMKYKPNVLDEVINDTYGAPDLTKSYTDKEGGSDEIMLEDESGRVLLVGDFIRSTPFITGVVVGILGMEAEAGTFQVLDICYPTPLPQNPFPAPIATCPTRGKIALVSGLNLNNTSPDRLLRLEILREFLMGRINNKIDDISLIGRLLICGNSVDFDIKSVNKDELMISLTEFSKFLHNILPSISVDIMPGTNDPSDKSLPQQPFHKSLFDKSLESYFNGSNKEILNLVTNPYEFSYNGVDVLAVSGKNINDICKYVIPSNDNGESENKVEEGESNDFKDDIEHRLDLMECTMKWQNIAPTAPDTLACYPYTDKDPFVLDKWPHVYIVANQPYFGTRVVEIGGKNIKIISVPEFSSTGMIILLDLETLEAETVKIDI

[2] = molecular target: T2, LexA-Pol31 (wild-type, full length) (budding yeast) (UniProt P46957); experiment: as above
T2 sequence: T1 sequence with A417W

[3] = molecular target: T1, LexA-Pol31-W417A (budding yeast); experiment: two-hybrid; LexA bait (pGAL-LexA) and B42 prey (pJG4-7), lacZ reporter pSH18-34; 2% galactose for 6 h; quantitative liquid β-galactosidase assay of cell extracts; pol32Δ strain GA-6292 (no endogenous Pol32)
[4] = molecular target: T2, LexA-Pol31 (wild-type, full length) (budding yeast); experiment: as above

Measured: binding

Rev3 CTD, two-hybrid fusion (budding yeast) (domain or fragment)
binds: all assays above
